These are yes or no findings as the source states them, for the method shown. In cells and extracts the contact can be indirect. Some entries that bind do so weakly or less than the wild type.
Target: RhoA (human (endogenous in MDA-MB-231-Luc)) (UniProt P61586)
Assay: proximity ligation; in situ, Duolink 'In-cell Co-IP' kit with anti-SCN4B and anti-RhoA primary antibodies, in shCTL MDA-MB-231-Luc cells; shSCN4B (knock-down) cells as control

The chains behind the UniProt entries cited, without tags or fusion partners.
UniProt P61586: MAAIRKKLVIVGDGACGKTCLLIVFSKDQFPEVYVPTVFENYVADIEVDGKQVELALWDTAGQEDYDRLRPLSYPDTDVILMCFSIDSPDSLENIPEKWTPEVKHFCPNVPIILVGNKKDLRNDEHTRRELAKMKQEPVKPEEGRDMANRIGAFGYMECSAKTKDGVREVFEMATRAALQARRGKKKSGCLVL

binding: binds
B1: SCN4B/β4 protein (protein, UniProt Q8IWT1 31-228)
chain: LEVSVGKATDIYAVNGTEILLPCTFSSCFGFEDLHFRWTYNSSDAFKILIEGTVKNEKSDPKVTLKDDDRITLVGSTKEKMNNISIVLRDLEFSDTGKYTCHVKNPKENNLQHHATIFLQVVDRLEEVDNTVTLIILAVVGGVIGLLILILLIKKLIIFILKKTREKKKECLVSSSGNDNTENGLPGSKAEEKPPSKV

Source: article PMC5150224
